## Results of single-concentration screens

Data taken from ChEMBL document CHEMBL3988442, “University of Dundee, Small-Polar-MMV Screening Library” (2021).

Mtb glucose medium: 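Phenotypic screen: M. tuberculosis growth, glucose 7H9 medium, 3 days; the read-out is not stated. Tested at 50 µM. The record gives no direction; compounds that gave an IC50 in retests scored well above the rest, so higher reads as more growth inhibition. Size under these conditions: about 69,000 compounds, about 760 of them at 50% or above in at least one test.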
Mtb cholesterol medium: 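Phenotypic screen: M. tuberculosis growth, cholesterol and DPPC medium, 4 days; the read-out is not stated. Concentration: 50 µM. Direction is inferred from retests: higher values go with more growth inhibition. Of about 69,000 compounds tested this way, about 370 (0.54%) reached 50% or more in at least one test.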

The filed quantity is “Percent Effect” (%). The record does not define 0% and 100%; most values in the screen are far below 50% and negative numbers occur (in some assays of this library far below -100). This is an unselected part of the compounds tested. Two or more numbers in one place are separate tests of the same structure; such repeats can differ widely.

For Cn1cc(CN(CC2(O)CCNC2)C2CCCCC2)cn1 (centres unmarked) the result was Mtb glucose medium: 2.339%; Mtb cholesterol medium: -14.61%. With Cn1nccc1-c1ccc2nc(C3CCNCC3)nn2c1 the screen gave Mtb glucose medium: -29.47%; Mtb cholesterol medium: -23.52%. Result for COc1ccc(Cc2nc3c([nH]2)CC(C)(C)CNC3=O)c(OC)c1 was Mtb glucose medium: -18.38%; Mtb cholesterol medium: -20.53%. O=C(NCc1nnc2n1CCC2)c1cccc(Br)c1 gave Mtb glucose medium: -11.62%; Mtb cholesterol medium: -7.024%. O=C(O)C(F)(F)F.[H][C@]12CCCN(Cc3ccc(F)cc3)[C@@]1([H])CN(C(=O)c1ccco1)C2 read Mtb glucose medium: -14.23%; Mtb cholesterol medium: -10.58%. For CCn1c(C)cc(C(=O)N2CCC(Nc3ccc(C)nn3)CC2)c1C the result was Mtb glucose medium: -14.65%; Mtb cholesterol medium: -5.348%.

Result for CCn1ccnc1CN1CCCN(C(=O)c2cc[nH]n2)CC1 was Mtb glucose medium: 12.53%; Mtb cholesterol medium: 4.304%. CCOC(=O)N1CCN(C(=O)c2sc(-c3ccccc3F)nc2C)CC1 gave Mtb glucose medium: 22.98%; Mtb cholesterol medium: 0.03411%. For COc1cccc(NC(=O)NCc2cnn(C)c2)c1 the result was Mtb glucose medium: 24.06%; Mtb cholesterol medium: -13.29%. Result for O=C(c1cnc2[nH]c(=O)[nH]c(=O)c2c1)N1CCCC1C1CCCC1 (centres unmarked) was Mtb glucose medium: 12.36%; Mtb cholesterol medium: -4.879%. For CCC(=O)NC(c1cccnc1)c1cc(C)ccc1C (centres unmarked) the result was Mtb glucose medium: -5.597%; Mtb cholesterol medium: -6.075%. CCN(CC1CN(CC2CCC2)CCO1)c1cccnn1 (centres unmarked) gave Mtb glucose medium: -6.725%; Mtb cholesterol medium: -12.41% & 0.04235%.

Cc1oc(-c2ccsc2)nc1CNC(C)Cn1cccn1 (centres unmarked) read Mtb glucose medium: -3.855% & -36.59%; Mtb cholesterol medium: -3.717%. With O=C(NCCn1ccnc1)N1CCCN(Cc2cccs2)CC1 the screen gave Mtb glucose medium: 29.57%; Mtb cholesterol medium: -7.067%. For COc1ccc(-c2ccncc2)cc1CNC1CCCC1 the result was Mtb glucose medium: -10.13%; Mtb cholesterol medium: 5.626%. CC(C)CCNC(=O)C1CCCN1C(=O)Nc1cccc(F)c1 (centres unmarked) read Mtb glucose medium: -26.68%; Mtb cholesterol medium: -17.99%. CCN(Cc1ccco1)C(=O)NCc1nnc2n1CCCCC2 read Mtb glucose medium: -10.88% & -33.36%; Mtb cholesterol medium: -22.94%. For COc1cc(CNCc2ccnc(N3CCOCC3)c2)cc(OC)c1 the result was Mtb glucose medium: -6.617% & -24.97%; Mtb cholesterol medium: -19.1%.

CS(=O)(=O)NC(=O)c1ccn(-c2ccc(Cl)c(Cl)c2)n1 read Mtb glucose medium: 8.568%; Mtb cholesterol medium: 0.8892%. For [H][C@@]12CCN(C(=O)Cc3nc4nc(C)cc(C)n4n3)C[C@@]1(CO)CCCN2 the result was Mtb glucose medium: 5.589%; Mtb cholesterol medium: -12.39%. Result for CCCN(Cc1ccc(S(=O)(=O)NC)cc1)Cc1ccccc1OC was Mtb glucose medium: -18.17%; Mtb cholesterol medium: 11.21%. Result for O=C(O)C(F)(F)F.[H][C@@]12CCN(Cc3nccs3)[C@]1([H])CC[C@H](C(=O)NCc1ccco1)O2 was Mtb glucose medium: 4.854% & -2.301%; Mtb cholesterol medium: -10.33%. With CCOc1ccc(Cl)c(C(=O)N2CCN(CC(C)(C)O)CC2)n1 the screen gave Mtb glucose medium: 21.79%; Mtb cholesterol medium: 0.8835%. With Cc1ccc(C(=O)N2CCC[C@@H]2Cn2nnc3c(O)nc(C)nc32)cc1 the screen gave Mtb glucose medium: 23.37%; Mtb cholesterol medium: 11.79%.

For O=C(O)C(F)(F)F.[H][C@@]12CCN(C3CCOCC3)C[C@@]1([H])O[C@H](C(=O)N(C)C)C2 the result was Mtb glucose medium: 20.26%; Mtb cholesterol medium: 27%. With CN(C)S(=O)(=O)N1CCCC(c2cccc(Cc3ccccc3)n2)C1 (centres unmarked) the screen gave Mtb glucose medium: -29.03%; Mtb cholesterol medium: -6.558%. Result for COc1c(C2CCCN2C(=O)c2cc(C3CC3)on2)c(C)nn1C (centres unmarked) was Mtb glucose medium: -22.17%; Mtb cholesterol medium: -6.632% & 1.285%. For O=C(Nc1nncs1)NC1CCOc2ccccc21 (centres unmarked) the result was Mtb glucose medium: -21.9%; Mtb cholesterol medium: -18.76%. For Cc1noc(CCCC(=O)N2CCCCC2CNS(C)(=O)=O)n1 (centres unmarked) the result was Mtb glucose medium: 21.4%; Mtb cholesterol medium: 4.424%. With O=C(NCCCNC(=O)c1ccccc1)Nc1ccc(F)cc1F the screen gave Mtb glucose medium: 29.61%; Mtb cholesterol medium: 24.55%.

CC(=O)N1CCC(NC2(Cc3cc(C(C)(C)O)on3)COC2)CC1 read Mtb glucose medium: -6.953% & 10.74%; Mtb cholesterol medium: 14.79%. Result for O=C(NCC1CCOC1)c1csc(Cc2ccccc2)n1 (centres unmarked) was Mtb glucose medium: 9.167%; Mtb cholesterol medium: -14.59%. With Cc1nc(CN2CCN(c3nc4c(s3)c(C)nn4C)CC2)cs1 the screen gave Mtb glucose medium: 23.6% & 15.96%; Mtb cholesterol medium: 23.08%. Result for Cc1noc(CC2CCN(C(=O)C(c3ccccc3C)N(C)C)CC2)n1 (centres unmarked) was Mtb glucose medium: -22.35%; Mtb cholesterol medium: 3.47%. For O=C(O)C(F)(F)F.O=C(c1ccccn1)N1CCC2(CC1)C(=O)Nc1ccccc12 the result was Mtb glucose medium: -0.2971% & 8.137%; Mtb cholesterol medium: -8.557% & -4.335%. O=C(O)C(F)(F)F.c1ccc(N2CCOC3(CCCN(c4nncs4)C3)C2)nc1 (centres unmarked) gave Mtb glucose medium: 7.239%; Mtb cholesterol medium: -3.543%.

With CCc1noc(C2CCCCN2C(=O)c2ccc(C)o2)n1 (centres unmarked) the screen gave Mtb glucose medium: -23.27%; Mtb cholesterol medium: -5.017%.

Repeated from the top, 2 entries:

| SMILES | Mtb glucose medium | Mtb cholesterol medium |
|---|---|---|
| `Cn1cc(CN(CC2(O)CCNC2)C2CCCCC2)cn1` (centres unmarked) | 2.339 | -14.61 |
| `Cn1nccc1-c1ccc2nc(C3CCNCC3)nn2c1` | -29.47 | -23.52 |